Here are results for 1 substance from article doi:10.64898/2025.12.25.696488.

Sequences of proteins named here, by UniProt entry; tags and fusion partners are left off. A change or cut given only in a name is not applied to a line headed by its entry.
UniProt Q20118: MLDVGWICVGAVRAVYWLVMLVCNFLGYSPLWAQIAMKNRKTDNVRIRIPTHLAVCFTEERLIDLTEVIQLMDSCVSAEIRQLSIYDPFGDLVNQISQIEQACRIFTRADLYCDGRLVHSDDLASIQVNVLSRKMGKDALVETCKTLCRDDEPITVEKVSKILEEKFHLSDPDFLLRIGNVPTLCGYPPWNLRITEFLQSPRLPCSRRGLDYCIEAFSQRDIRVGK

For this test, the target named is T1, STT-3::mCherry (C. elegans) (UniProt P46975).
T1 sequence: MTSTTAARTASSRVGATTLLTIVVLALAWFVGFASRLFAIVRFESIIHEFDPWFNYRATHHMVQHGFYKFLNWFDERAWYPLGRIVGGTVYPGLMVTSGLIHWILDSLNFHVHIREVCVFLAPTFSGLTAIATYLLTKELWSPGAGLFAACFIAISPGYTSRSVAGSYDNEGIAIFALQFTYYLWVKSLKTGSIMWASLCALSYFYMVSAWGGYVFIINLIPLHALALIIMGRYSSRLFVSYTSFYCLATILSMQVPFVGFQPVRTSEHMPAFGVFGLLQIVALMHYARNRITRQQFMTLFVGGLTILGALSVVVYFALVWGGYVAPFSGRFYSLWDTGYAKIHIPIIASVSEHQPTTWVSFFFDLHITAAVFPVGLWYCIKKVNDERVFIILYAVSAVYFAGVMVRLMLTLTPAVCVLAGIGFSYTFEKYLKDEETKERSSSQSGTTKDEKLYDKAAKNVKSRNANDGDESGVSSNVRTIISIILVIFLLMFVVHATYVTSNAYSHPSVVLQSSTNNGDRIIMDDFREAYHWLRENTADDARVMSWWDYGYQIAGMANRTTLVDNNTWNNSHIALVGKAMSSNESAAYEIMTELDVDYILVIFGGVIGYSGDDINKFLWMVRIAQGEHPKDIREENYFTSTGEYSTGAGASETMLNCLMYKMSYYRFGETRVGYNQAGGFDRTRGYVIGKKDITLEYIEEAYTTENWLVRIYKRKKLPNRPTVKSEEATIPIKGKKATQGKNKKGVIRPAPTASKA
Briefly: co-IP.

No constants are given. Whether binding was seen depends on the method and setting. In cells and extracts the contact can be indirect. A result given as binding can be weak or reduced; the word gives no strength.

For GFP::NUS-1 (from UniProt Q20118), the binding entry is listed as “binds”.
